Results are given in words; binding and its absence hold for the method and conditions named. Some entries that bind do so weakly or less than the wild type.
Molecular target: biotin conjugated PD-L1 protein (UniProt Q9NZQ7)
Experiment: transduced HEK-IL-18 reporter cells stained with biotinylated antigen and fluorescent streptavidin

Amino acid sequences for entries named in this document (tags omitted).
UniProt Q9NZQ7: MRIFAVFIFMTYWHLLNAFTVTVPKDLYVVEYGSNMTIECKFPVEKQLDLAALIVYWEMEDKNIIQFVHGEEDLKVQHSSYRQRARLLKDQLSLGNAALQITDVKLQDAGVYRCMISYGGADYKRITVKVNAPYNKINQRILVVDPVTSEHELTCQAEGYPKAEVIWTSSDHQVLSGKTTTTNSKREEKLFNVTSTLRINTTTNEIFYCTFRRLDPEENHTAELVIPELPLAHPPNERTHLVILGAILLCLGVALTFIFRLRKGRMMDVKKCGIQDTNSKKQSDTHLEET

B1: biepitope CCR8 (38A1scFv-CD28TM-IL-18R1-T2A-19H9scFv-CD28TM-IL-18RAP) (receptor)
chain 1: SYVLTQPPSVSVAPGQTARITCGGNNIGRKIVHWYQQRPGQAPVLVIYYDTDRPAGIPERFSGSNSGNMATLTISTVGAGDEADYYCQVWDTGSDHVVFGGGTKLTVLGGGGSGGGGSGGGGSGGGGSEVQLVESGGGLVQPGGSLRLSCAASGFTFSNYAMSWVRQAPGKGLEWVSTISGSGGTTYYADSVKGRFTISRDNSKNTLYLQMNSLRVEDTAVYYCAKDWFRSSSPDAFDIWGQGTTVTVSAIEVMYPPPYLDNEKSNGTIIHVKGKHLCPSPLFPGPSKPFWVLVVVGGVLACYSLLVTVAFIIFWVYRVDLVLFYRHLTRRDETLTDGKTYDAFVSYLKECRPENGEEHTFAVEILPRVLEKHFGYKLCIFERDVVPGGAVVDEIHSLIEKSRRLIIVLSKSYMSNEVRYELESGLHEALVERKIKIILIEFTPVTDFTFLPQSLKLLKSHRVLKWKADKSLSYNSRFWKNLLYLMPAKTVKPGRDEPEVLPVLSESGSGEGRGSLLTCGDVEENPG
chain 2: NFMLTQPHSVSESLGKTVTISCTGSSGSIARKFVQWYQQRPGSSPTTVIYENNQRPSGVSDRFSGSIGSSSNSASLTISGLKTEDEADYYCQSYDSSNVVFGGGTKVTVLGGGGSGGGGSGGGGSGGGGSQVQLQESGGGLVKPGGSLRLSCAASGFTFSSYSMNWVRQAPGKGLEWVSGINTAGDTHYPESVKGRFTISRDNARNSLNLQMNSLRAEDTAVYYCVRERVEREYSGYDAFDIWGQGTTVTVSAIEVMYPPPYLDNEKSNGTIIHVKGKHLCPSPLFPGPSKPFWVLVVVGGVLACYSLLVTVAFIIFWVSALLYRHWIEIVLLYRTYQSKDQTLGDKKDFDAFVSYAKWSSFPSEATSSLSEEHLALSLFPDVLENKYGYSLCLLERDVAPGGVYAEDIVSIIKRSRRGIFILSPNYVNGPSIFELQAAVNLALDDQTLKLILIKFCYFQEPESLPHLVKKALRVLPTVTWRGLKSVPPNSRFWAKMRYHMPVKNSQGFTWNQLRITSRIFQWKGLSRTETTGRSSQPKEW
binding: binds

— patent US20260021181A1, “CHIMERIC COSTIMULATORY RECEPTORS, CHEMOKINE RECEPTORS, AND THE USE OF SAME IN CELLULAR IMMUNOTHERAPIES” (Iovance Biotherapeutics, Inc., priority 2022, published 2026)
